In the supplement of paper PMC10849652:
Some of the results follow. Residues, ends and D or L forms follow the SMILES beside them. *: point of attachment. Cbz = O=C(OCc1ccccc1)*

Amino acid sequences for entries named in this document (tags omitted). A change or cut given only in a name is not applied to a line headed by its entry.
UniProt Q04760: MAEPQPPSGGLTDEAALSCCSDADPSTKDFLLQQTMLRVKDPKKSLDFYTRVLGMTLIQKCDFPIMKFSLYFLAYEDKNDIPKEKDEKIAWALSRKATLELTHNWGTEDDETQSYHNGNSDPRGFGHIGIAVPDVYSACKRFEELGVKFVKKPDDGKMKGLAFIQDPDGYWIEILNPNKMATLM
UniProt O00461: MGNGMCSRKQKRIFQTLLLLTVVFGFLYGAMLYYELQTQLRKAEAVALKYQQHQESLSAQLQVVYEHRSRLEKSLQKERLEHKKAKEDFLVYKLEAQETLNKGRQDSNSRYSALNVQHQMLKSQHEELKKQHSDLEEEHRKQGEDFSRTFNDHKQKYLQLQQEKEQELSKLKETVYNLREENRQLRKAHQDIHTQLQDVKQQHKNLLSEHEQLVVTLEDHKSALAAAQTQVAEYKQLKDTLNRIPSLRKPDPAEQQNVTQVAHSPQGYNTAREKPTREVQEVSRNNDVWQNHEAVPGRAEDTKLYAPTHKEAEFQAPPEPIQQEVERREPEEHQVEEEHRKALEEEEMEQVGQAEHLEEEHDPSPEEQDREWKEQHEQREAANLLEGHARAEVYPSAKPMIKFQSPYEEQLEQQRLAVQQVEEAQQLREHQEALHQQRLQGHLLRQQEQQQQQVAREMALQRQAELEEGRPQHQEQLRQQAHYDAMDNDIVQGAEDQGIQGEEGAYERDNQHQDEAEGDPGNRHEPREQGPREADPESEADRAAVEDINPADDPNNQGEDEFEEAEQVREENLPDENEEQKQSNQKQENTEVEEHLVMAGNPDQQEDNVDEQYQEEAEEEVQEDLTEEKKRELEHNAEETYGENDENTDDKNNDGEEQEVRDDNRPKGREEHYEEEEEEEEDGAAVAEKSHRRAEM
UniProt Q92990: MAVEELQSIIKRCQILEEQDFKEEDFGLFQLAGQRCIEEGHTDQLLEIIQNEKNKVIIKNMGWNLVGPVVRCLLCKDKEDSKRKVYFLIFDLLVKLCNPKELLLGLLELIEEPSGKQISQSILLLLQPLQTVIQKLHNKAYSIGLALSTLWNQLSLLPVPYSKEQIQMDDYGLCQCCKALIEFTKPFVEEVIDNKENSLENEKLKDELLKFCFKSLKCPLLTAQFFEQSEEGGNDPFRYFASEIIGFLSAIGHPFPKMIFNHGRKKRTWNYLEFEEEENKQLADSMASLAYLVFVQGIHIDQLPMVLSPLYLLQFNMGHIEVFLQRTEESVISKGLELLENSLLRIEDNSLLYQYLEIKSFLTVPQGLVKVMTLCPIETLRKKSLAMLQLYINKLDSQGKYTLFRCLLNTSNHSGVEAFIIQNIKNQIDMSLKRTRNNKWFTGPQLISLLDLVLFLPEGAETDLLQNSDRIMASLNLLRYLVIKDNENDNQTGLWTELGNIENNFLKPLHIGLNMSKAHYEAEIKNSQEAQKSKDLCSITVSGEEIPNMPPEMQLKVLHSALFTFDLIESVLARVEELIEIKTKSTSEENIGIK
UniProt P62873, whole entry, looked up: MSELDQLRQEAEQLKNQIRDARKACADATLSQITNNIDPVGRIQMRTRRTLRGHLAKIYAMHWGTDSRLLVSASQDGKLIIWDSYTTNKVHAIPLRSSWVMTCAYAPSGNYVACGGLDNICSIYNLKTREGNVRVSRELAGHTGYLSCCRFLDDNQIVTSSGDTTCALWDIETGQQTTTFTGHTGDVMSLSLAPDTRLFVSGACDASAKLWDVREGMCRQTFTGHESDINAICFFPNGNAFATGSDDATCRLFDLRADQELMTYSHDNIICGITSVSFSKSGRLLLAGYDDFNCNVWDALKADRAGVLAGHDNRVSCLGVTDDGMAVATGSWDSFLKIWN
UniProt Q13098: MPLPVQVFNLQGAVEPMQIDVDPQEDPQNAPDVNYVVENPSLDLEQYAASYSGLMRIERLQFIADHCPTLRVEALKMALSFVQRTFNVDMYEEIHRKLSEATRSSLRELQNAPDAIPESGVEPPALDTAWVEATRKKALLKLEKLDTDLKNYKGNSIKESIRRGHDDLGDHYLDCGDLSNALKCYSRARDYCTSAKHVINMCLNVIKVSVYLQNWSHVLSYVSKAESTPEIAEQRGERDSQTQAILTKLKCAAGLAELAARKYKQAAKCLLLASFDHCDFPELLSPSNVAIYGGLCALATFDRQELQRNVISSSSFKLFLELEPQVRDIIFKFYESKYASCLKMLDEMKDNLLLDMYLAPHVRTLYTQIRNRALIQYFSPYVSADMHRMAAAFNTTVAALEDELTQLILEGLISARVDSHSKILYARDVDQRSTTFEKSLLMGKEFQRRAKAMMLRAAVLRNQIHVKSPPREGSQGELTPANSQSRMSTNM
UniProt Q9NS18: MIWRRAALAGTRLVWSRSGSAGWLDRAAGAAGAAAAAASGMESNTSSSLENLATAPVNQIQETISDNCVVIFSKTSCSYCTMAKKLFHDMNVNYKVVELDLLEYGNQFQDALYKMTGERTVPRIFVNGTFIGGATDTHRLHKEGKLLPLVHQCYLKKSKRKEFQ
UniProt P60983, whole entry, looked up: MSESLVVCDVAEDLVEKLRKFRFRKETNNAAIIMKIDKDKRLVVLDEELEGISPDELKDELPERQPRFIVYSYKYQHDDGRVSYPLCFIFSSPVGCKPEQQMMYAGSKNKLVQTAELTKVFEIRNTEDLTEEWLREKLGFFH
UniProt Q9UHW5, whole entry, looked up: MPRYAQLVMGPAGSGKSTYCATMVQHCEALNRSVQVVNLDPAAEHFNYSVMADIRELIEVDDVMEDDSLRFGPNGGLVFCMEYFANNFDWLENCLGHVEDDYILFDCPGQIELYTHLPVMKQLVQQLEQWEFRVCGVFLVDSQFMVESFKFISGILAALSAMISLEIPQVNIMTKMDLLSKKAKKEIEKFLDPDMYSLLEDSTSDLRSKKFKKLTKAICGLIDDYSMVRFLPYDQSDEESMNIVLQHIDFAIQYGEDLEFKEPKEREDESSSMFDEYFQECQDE
UniProt Q8TBA6: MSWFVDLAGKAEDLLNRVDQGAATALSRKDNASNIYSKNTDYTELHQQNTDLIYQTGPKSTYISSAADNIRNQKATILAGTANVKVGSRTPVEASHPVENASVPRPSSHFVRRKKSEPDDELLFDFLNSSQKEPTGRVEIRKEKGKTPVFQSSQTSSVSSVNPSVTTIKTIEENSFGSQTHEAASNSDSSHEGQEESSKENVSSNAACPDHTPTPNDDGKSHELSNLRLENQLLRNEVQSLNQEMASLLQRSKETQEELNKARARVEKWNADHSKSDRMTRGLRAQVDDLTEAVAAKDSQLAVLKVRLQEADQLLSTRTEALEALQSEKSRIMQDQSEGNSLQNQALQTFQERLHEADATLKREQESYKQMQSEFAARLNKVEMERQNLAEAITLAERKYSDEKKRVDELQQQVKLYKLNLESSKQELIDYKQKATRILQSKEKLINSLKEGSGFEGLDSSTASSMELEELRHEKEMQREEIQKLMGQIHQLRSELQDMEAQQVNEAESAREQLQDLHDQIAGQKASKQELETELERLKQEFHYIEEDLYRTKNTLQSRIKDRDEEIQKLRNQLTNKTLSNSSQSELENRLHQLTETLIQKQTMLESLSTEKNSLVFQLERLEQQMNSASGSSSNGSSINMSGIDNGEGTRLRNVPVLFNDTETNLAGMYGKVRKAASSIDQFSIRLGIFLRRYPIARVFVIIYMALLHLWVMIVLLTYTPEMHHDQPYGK
UniProt P28799: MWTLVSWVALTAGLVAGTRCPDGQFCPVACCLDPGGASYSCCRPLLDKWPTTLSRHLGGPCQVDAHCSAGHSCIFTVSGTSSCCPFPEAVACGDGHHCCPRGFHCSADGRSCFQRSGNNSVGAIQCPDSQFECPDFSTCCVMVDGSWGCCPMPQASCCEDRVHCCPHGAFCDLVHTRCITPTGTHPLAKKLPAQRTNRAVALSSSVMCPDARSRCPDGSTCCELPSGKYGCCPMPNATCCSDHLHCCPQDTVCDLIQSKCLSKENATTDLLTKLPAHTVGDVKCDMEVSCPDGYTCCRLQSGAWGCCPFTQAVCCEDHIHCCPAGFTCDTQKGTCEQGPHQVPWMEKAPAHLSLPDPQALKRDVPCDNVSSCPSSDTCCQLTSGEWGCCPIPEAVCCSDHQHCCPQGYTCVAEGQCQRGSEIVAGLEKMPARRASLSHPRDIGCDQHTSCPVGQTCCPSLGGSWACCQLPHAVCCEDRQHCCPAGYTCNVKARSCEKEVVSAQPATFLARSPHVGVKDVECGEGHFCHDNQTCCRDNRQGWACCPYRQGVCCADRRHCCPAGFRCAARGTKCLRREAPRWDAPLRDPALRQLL
UniProt P29992, whole entry, looked up: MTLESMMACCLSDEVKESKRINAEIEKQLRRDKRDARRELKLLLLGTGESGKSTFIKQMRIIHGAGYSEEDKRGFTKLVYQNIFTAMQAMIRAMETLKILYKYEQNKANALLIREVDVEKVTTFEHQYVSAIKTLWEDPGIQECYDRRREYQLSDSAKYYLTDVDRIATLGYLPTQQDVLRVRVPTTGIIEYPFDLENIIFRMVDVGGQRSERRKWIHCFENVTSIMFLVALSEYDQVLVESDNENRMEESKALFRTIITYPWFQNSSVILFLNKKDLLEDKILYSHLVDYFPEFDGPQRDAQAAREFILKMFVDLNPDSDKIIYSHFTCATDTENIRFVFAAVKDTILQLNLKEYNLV
UniProt P25098: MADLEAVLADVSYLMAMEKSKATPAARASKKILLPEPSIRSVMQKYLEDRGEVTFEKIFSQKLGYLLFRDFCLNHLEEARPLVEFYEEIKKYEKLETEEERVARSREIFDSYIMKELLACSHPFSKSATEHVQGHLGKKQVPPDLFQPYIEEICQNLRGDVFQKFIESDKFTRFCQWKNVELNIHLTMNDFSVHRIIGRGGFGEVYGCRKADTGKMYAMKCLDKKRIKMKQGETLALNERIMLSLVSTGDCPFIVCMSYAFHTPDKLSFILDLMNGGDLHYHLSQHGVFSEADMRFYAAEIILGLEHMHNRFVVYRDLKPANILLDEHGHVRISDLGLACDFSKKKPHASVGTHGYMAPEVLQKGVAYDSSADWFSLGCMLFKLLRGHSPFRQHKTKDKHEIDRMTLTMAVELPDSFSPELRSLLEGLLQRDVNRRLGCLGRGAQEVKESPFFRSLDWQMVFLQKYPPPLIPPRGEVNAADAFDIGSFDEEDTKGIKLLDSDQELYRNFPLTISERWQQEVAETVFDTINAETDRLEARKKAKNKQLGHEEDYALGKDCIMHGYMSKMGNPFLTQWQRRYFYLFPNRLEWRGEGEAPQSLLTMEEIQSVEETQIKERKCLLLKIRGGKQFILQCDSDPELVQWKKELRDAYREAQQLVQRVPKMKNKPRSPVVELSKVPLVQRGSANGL
UniProt Q08379: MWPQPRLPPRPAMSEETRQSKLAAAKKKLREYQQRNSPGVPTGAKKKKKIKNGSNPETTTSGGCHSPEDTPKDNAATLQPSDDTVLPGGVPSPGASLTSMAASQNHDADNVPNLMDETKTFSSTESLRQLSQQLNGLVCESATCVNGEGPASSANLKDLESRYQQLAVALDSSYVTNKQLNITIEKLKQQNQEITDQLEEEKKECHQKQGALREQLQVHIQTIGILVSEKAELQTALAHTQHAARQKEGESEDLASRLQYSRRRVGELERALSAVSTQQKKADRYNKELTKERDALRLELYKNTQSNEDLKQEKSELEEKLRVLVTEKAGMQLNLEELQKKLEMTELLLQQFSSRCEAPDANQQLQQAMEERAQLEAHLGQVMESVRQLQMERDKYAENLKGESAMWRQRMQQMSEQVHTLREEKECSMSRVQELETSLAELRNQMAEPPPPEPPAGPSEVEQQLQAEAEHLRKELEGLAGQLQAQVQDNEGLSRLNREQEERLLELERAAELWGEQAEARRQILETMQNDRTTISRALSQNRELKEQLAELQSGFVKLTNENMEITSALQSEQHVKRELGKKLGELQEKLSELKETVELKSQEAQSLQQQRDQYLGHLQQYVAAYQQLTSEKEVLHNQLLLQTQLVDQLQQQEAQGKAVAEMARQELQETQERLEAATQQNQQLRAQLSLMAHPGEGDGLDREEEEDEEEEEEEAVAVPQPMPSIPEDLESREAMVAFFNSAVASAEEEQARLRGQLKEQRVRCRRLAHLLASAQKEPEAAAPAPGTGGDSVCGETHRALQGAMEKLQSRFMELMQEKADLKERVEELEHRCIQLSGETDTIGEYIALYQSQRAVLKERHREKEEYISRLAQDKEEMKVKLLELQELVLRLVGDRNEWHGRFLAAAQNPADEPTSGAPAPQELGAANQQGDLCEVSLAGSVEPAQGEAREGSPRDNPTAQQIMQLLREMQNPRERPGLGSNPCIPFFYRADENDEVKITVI

Key:
Experiment in all cases: log2 fold change, soluble protein after heating vs DMSO (PISA); higher = thermal stabilisation; K562 cells, 10 uM, 30 min; active = over 0.2 and 3.5 SD of the protein, either way, in both replicates (recomputed)
IRAK-1-4 Inhibitor I = compound: C1COCCN1CCN2C3=CC=CC=C3N=C2NC(=O)C4=CC(=CC=C4)[N+](=O)[O-] [IRAK-1-4 Inhibitor I]
How it was run: (§1)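 K562 cells at 2×10^6 cells/mL were exposed to 10 μM compound for 30 min, then aliquots were heated for 3 min across 48°C-58°C, pooled, and extracted in PBS containing 0.5% NP-40 at 4°C. The supernatant after 21,000xg for 90 min was taken as soluble protein and measured by TMTpro 16plex LC-MS/MS with channel sums equalised. Thermal stability is reported relative to control samples, with values from duplicates. Fold changes are given on a log2 scale.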

ibrutinib = compound: C=CC(=O)N1CCC[C@@H](n2nc(-c3ccc(Oc4ccccc4)cc3)c3c(N)ncnc32)C1 [ibrutinib]
How it was run: as §1

[1] = compound: CC(=O)c1cnc2ccc(-c3cc(Cl)c(O)c(Cl)c3)nc2c1N[C@H]1CC[C@H](CN(C)C)CC1
How it was run: as §1

ralimetinib = compound: CC(C)(C)Cn1c(N)nc2ccc(-c3[nH]c(C(C)(C)C)nc3-c3ccc(F)cc3)nc21 [ralimetinib]
How it was run: as §1

[2] = compound: CC(C)(O)CC(=O)NCCn1ccc2ncnc(Nc3ccc(Oc4cccc(C(F)(F)F)c4)c(Cl)c3)c21
How it was run: as §1

[3] = compound: CC(C)C1=C2N=C(C=C(N2N=C1)NCC3=CC=CC=C3)NCCCCCCN
How it was run: as §1

[4] = compound: CC(C)C[C@@H](C=O)NC(=O)[C@H](CC(C)C)NC(=O)[C@H](CC(C)C)NC(=O)OCc1ccccc1
How it was run: as §1

pinometostat = compound: CC(C)N(C[C@H]1O[C@@H](n2cnc3c(N)ncnc32)[C@H](O)[C@@H]1O)[C@H]1C[C@@H](CCc2nc3cc(C(C)(C)C)ccc3[nH]2)C1 [pinometostat]
How it was run: as §1

[5] = compound: CC1=C(C(CC(=O)N1)C2=CC=C(C=C2)C(F)(F)F)C(=O)NC3=C(C=C4C(=C3)C=NN4)F
How it was run: as §1

[6] = compound: CC1=C(C2=C(C=C1)C(=O)C3=CC=CC=C3N2CCCN)C
How it was run: as §1

[7] = compound: CC1=C(C=C(C=C1)NC(=O)C2=CC(=CC=C2)C(C)(C)C#N)NC3=CC4=C(C=C3)N=CN(C4=O)C
How it was run: as §1

[8] = compound: CC1=C(C=C(C=C1)NC(=O)C2=CC(=CC=C2)N(C)C)NC(=O)C3=CC=C(C=C3)O
How it was run: as §1

[9] = compound: CC1=CC=C(C=C1)SC2=C3C=C(SC3=CN=C2)C(=O)N
How it was run: as §1

[10] = compound: CC1=NC(=CC=C1)C2=C(N=C(N2)C(C)(C)C)C3=CC4=NC=CN=C4C=C3
How it was run: as §1

Nexturastat A = compound: CCCCN(Cc1ccc(C(=O)NO)cc1)C(=O)Nc1ccccc1 [Nexturastat A]
How it was run: as §1

vemurafenib = compound: CCCS(=O)(=O)Nc1ccc(F)c(C(=O)c2c[nH]c3ncc(-c4ccc(Cl)cc4)cc23)c1F [vemurafenib]
How it was run: as §1

[11] = compound: CCCS(=O)(=O)Nc1ccc(F)c(C(=O)c2c[nH]c3ncc(Cl)cc23)c1F
How it was run: as §1

[12] = compound: CCCc1cc(C)[nH]c(=O)c1CNC(=O)c1cc(-c2ccnc(N3CCN(C)CC3)c2)cc2c1cnn2C(C)C
How it was run: as §1

givinostat = compound: CCN(CC)Cc1ccc2cc(COC(=O)Nc3ccc(C(=O)NO)cc3)ccc2c1 [givinostat]
How it was run: as §1

barasertib = compound: CCN(CCCOc1ccc2c(Nc3cc(CC(=O)Nc4cccc(F)c4)[nH]n3)ncnc2c1)CCOP(=O)(O)O [barasertib]
How it was run: as §1

Measured: log2 fold change

GRSF1 (UniProt Q12849)
inactive: IRAK-1-4 Inhibitor I -0.118 | ibrutinib 0.063 | [1] -0.122 | ralimetinib -0.009 | [2] -0.069 | [3] -0.241 | [4] 0.038 | pinometostat 0.099 | [5] 0.017 | [6] -0.494 | [7] 0.094 | [8] 0.016 | [9] 0.072 | [10] -0.051 | Nexturastat A 0.336 | vemurafenib 0.005 | [11] 0.059 | [12] 0.046 | givinostat 0.028 | barasertib 0.013

GPD2 (UniProt P43304)
inactive: IRAK-1-4 Inhibitor I 0.026 | ibrutinib 0.021 | [1] 0.007 | ralimetinib 0.002 | [2] 0 | [3] 0.038 | [4] -0.059 | pinometostat -0.018 | [5] 0.013 | [6] -0.016 | [7] -0.022 | [8] -0.007 | [9] 0.028 | [10] -0.017 | Nexturastat A -0.049 | vemurafenib -0.025 | [11] -0.018 | [12] -0.023 | givinostat -0.024 | barasertib -0.016

GNE isoform 2 (UniProt Q9Y223)
inactive: IRAK-1-4 Inhibitor I 0.016 | ibrutinib -0.019 | [1] 0.079 | ralimetinib -0.055 | [2] -0.145 | [3] 0.004 | [4] 0.049 | pinometostat 0.002 | [5] -0.044 | [6] 0.21 | [7] -0.016 | [8] 0.057 | [9] -0.079 | [10] 0.026 | Nexturastat A -0.129 | vemurafenib 0.009 | [11] 0.003 | [12] -0.06 | givinostat -0.003 | barasertib 0.008

GLO1 (UniProt Q04760)
inactive: IRAK-1-4 Inhibitor I 0.03 | ibrutinib 0.012 | [1] -0.004 | ralimetinib -0.028 | [2] -0.022 | [3] -0.001 | [4] -0.063 | pinometostat -0.06 | [5] 0.125 | [6] 0.001 | [7] 0.012 | [8] 0.023 | [9] 0.011 | [10] 0.024 | Nexturastat A -0.032 | vemurafenib 0.009 | [11] -0.017 | [12] -0.02 | givinostat -0.019 | barasertib 0.013

GOLIM4 (UniProt O00461)
inactive: IRAK-1-4 Inhibitor I 0.024 | ibrutinib 0.004 | [1] -0.005 | ralimetinib -0.017 | [2] 0.046 | [3] -0.029 | [4] -0.053 | pinometostat -0.012 | [5] -0.021 | [6] 0.005 | [7] 0.038 | [8] 0.005 | [9] 0.005 | [10] 0.027 | Nexturastat A -0.046 | vemurafenib -0.029 | [11] 0.017 | [12] -0.025 | givinostat -0.004 | barasertib -0.021

GLMN (UniProt Q92990)
inactive: IRAK-1-4 Inhibitor I 0.023 | ibrutinib -0.006 | [1] -0.01 | ralimetinib 0.016 | [2] -0.068 | [3] 0.01 | [4] -0.065 | pinometostat 0.022 | [5] -0.032 | [6] -0.023 | [7] -0.01 | [8] 0.013 | [9] 0.017 | [10] -0.009 | Nexturastat A -0.033 | vemurafenib 0.05 | [11] 0.074 | [12] -0.017 | givinostat 0.03 | barasertib 0.005

GNB1 (UniProt P62873)
inactive: IRAK-1-4 Inhibitor I 0.018 | ibrutinib 0.045 | [1] 0.024 | ralimetinib -0.017 | [2] 0.013 | [3] 0.171 | [4] -0.009 | pinometostat -0.028 | [5] -0.023 | [6] 0.042 | [7] 0.143 | [8] -0.074 | [9] -0.047 | [10] -0.012 | Nexturastat A -0.031 | vemurafenib -0.022 | [11] 0.008 | [12] -0.008 | givinostat -0.031 | barasertib -0.061

GPS1 isoform 7 (UniProt Q13098)
inactive: IRAK-1-4 Inhibitor I 0.024 | ibrutinib -0.004 | [1] -0.036 | ralimetinib 0.002 | [2] 0.02 | [3] 0.005 | [4] -0.059 | pinometostat -0.057 | [5] 0.006 | [6] -0.082 | [7] 0.013 | [8] 0.024 | [9] 0.014 | [10] 0.054 | Nexturastat A -0.088 | vemurafenib 0.022 | [11] 0.044 | [12] -0.016 | givinostat -0.011 | barasertib 0.018

GLRX2 isoform 2 (UniProt Q9NS18)
inactive: IRAK-1-4 Inhibitor I 0.007 | ibrutinib 0.021 | [1] 0.046 | ralimetinib -0.019 | [2] -0.32 | [3] 0.124 | [4] -0.016 | pinometostat -0.055 | [5] -0.126 | [6] -0.017 | [7] 0.085 | [8] -0.04 | [9] 0.177 | [10] 0.04 | Nexturastat A -0.025 | vemurafenib 0.037 | [11] -0.171 | [12] 0.17 | givinostat -0.055 | barasertib -0.054

GMFB (UniProt P60983)
inactive: IRAK-1-4 Inhibitor I 0.052 | ibrutinib 0.015 | [1] -0.024 | ralimetinib -0.01 | [2] -0.025 | [3] -0.006 | [4] -0.05 | pinometostat -0.081 | [5] 0.002 | [6] 0.047 | [7] 0.005 | [8] -0.022 | [9] -0.018 | [10] 0.06 | Nexturastat A -0.075 | vemurafenib 0.002 | [11] -0.002 | [12] -0.026 | givinostat -0.017 | barasertib -0.012

GPN3 isoform 2 (UniProt Q9UHW5)
inactive: IRAK-1-4 Inhibitor I 0 | ibrutinib -0.036 | [1] 0.002 | ralimetinib 0.061 | [2] 0.026 | [3] 0.037 | [4] -0.069 | pinometostat -0.04 | [5] 0.034 | [6] -0.009 | [7] -0.037 | [8] -0.001 | [9] 0.094 | [10] -0.001 | Nexturastat A -0.051 | vemurafenib -0.08 | [11] -0.016 | [12] 0.014 | givinostat -0.019 | barasertib 0.003

Taken from above (2 entries):
GMFB (UniProt P60983)
inactive: IRAK-1-4 Inhibitor I 0.052 | ibrutinib 0.015 | [1] -0.024 | ralimetinib -0.01 | [2] -0.025 | [3] -0.006 | [4] -0.05 | pinometostat -0.081 | [5] 0.002 | [6] 0.047 | [7] 0.005 | [8] -0.022 | [9] -0.018 | [10] 0.06 | Nexturastat A -0.075 | vemurafenib 0.002 | [11] -0.002 | [12] -0.026 | givinostat -0.017 | barasertib -0.012

GPN3 isoform 2 (UniProt Q9UHW5)
inactive: IRAK-1-4 Inhibitor I 0 | ibrutinib -0.036 | [1] 0.002 | ralimetinib 0.061 | [2] 0.026 | [3] 0.037 | [4] -0.069 | pinometostat -0.04 | [5] 0.034 | [6] -0.009 | [7] -0.037 | [8] -0.001 | [9] 0.094 | [10] -0.001 | Nexturastat A -0.051 | vemurafenib -0.08 | [11] -0.016 | [12] 0.014 | givinostat -0.019 | barasertib 0.003

Additional records follow.

GOLGA5 (UniProt Q8TBA6)
inactive: IRAK-1-4 Inhibitor I 0.001 | ibrutinib 0.057 | [1] -0.083 | ralimetinib -0.039 | [2] 0.006 | [3] 0.131 | [4] -0.008 | pinometostat -0.017 | [5] -0.052 | [6] 0.04 | [7] -0.028 | [8] -0.033 | [9] 0.002 | [10] 0.021 | Nexturastat A 0.02 | vemurafenib 0.005 | [11] 0.012 | [12] 0.024 | givinostat -0.031 | barasertib 0.056

GRN (UniProt P28799)
inactive: IRAK-1-4 Inhibitor I 0.077 | ibrutinib -0.031 | [1] -0.049 | ralimetinib 0.072 | [2] 0.003 | [3] 0.115 | [4] 0.03 | pinometostat -0.027 | [5] -0.09 | [6] 0.021 | [7] 0.012 | [8] 0.052 | [9] -0.07 | [10] -0.007 | Nexturastat A -0.064 | vemurafenib 0.019 | [11] -0.115 | [12] 0.035 | givinostat -0.092 | barasertib -0.112

GNA11 (UniProt P29992)
inactive: IRAK-1-4 Inhibitor I -0.073 | ibrutinib -0.001 | [1] -0.074 | ralimetinib -0.039 | [2] 0.06 | [3] 0.111 | [4] -0.012 | pinometostat -0.007 | [5] -0.087 | [6] 0.106 | [7] 0.093 | [8] -0.045 | [9] 0.002 | [10] -0.011 | Nexturastat A -0.122 | vemurafenib 0.05 | [11] 0.01 | [12] 0.024 | givinostat 0.007 | barasertib 0.002

GRK2 (UniProt P25098)
inactive: IRAK-1-4 Inhibitor I 0.005 | ibrutinib 0.015 | [1] -0.073 | ralimetinib -0.055 | [2] -0.058 | [3] -0.014 | [4] 0.008 | pinometostat -0.009 | [5] 0.011 | [6] 0.05 | [7] -0.052 | [8] 0.002 | [9] 0.009 | [10] 0.007 | Nexturastat A 0.005 | vemurafenib -0.02 | [11] 0.021 | [12] 0.019 | givinostat -0.018 | barasertib 0.036

GOLGA2 (UniProt Q08379)
inactive: IRAK-1-4 Inhibitor I 0.008 | ibrutinib -0.053 | [1] 0.11 | ralimetinib 0.146 | [2] 0.028 | [3] -0.022 | [4] 0.055 | pinometostat 0.092 | [5] -0.028 | [6] -0.022 | [7] -0.077 | [8] 0.011 | [9] -0.098 | [10] -0.053 | Nexturastat A 0.121 | vemurafenib 0.003 | [11] -0.065 | [12] 0.107 | givinostat 0.039 | barasertib 0.013
